Laboratory results reported in the supplement of paper PMC3682954.
Counter-ions that a name gives are not always drawn. ± gives the standard deviation of the averaged measurements. The list shows a part of the results. Many values rest on one well or one pass, so single values are uncertain.

Tested on: RAW 264.7
Test: HMGB1-induced TNF-alpha production relative to HMGB1-stimulated control; higher = more TNF-alpha secretion (less inhibition)
Conditions: stimulus: HMGB1 5 ug/ml, 18 h
[1] = compound concentration: 1 ug/ml

Compound | HMGB1-induced TNF-alpha production [1] | HMGB1-induced TNF-alpha production (compound concentration: 3 uM)
C=C1C(=O)O[C@@H]2C[C@@]3(C)CCCC(=C)[C@@H]3C[C@H]12 [Isoalantolactone] | 32.1% | –
CN1CCN(CC(=O)N2c3ccccc3C(=O)Nc3cccnc32)CC1 [Pirenzepine] | – | 100%
CN1CCN(CC(=O)N2c3ccccc3C(=O)Nc3cccnc32)CC1 | – | 94.8%
CN1CCN(CC(=O)N2c3ccccc3C(=O)Nc3cccnc32)CC1 [Pirenzepine dihydrochloride] | – | 80.6 ± 32%
CN(CCCCCCCCCCN(C)C(=O)Oc1cccc([N+](C)(C)C)c1)C(=O)Oc1cccc([N+](C)(C)C)c1 [Demecarium bromide] | – | 115%
COc1ccccc1-c1cc(=O)c2c(OC)cccc2o1 [2',5-Dimethoxyflavone] | 95% | –
CC(=O)N(CC(O)CO)c1c(I)c(C(=O)NCC(O)CO)c(I)c(C(=O)NCC(O)CO)c1I (configuration not stated) [Iohexol] | – | 64.3%
COC(=O)Nc1nc2cc(Sc3ccccc3)ccc2[nH]1 [Fenbendazole] | – | 83.5 ± 23%
COC(=O)Nc1nc2cc(Sc3ccccc3)ccc2[nH]1 | – | 111%
Cn1c(=O)c2c(ncn2CC2OCCO2)n(C)c1=O [Doxofylline] | – | 78.3 ± 29%
CCN(CC)C(C)CN1c2ccccc2Sc2ccccc21 (configuration not stated) [Ethopropazine hydrochloride] | – | 110 ± 3.3%
CCN(CC)C(C)CN1c2ccccc2Sc2ccccc21 (configuration not stated) | – | 81.4%
CCCNC(=O)NS(=O)(=O)c1ccc(Cl)cc1 | – | 84.6%
CCCNC(=O)NS(=O)(=O)c1ccc(Cl)cc1 [Chlorpropamide] | – | 84.8 ± 0.93%
CC(=O)O[C@]1(C(C)=O)CC[C@H]2[C@@H]3C=C(Cl)C4=CC(=O)CC[C@]4(C)[C@H]3CC[C@@]21C [Chlormadinone acetate] | 72.1% | 85%
CC(=O)O[C@]1(C(C)=O)CC[C@H]2[C@@H]3C=C(Cl)C4=CC(=O)CC[C@]4(C)[C@H]3CC[C@@]21C | – | 84.5%
CC(=O)O[C@]1(C(C)=O)CC[C@H]2[C@@H]3C=C(Cl)C4=CC(=O)CC[C@]4(C)[C@H]3CC[C@@]21C [Chlormadinone Acetate] | – | 82.7%
Nc1ccn([C@H]2C[C@H](O)[C@@H](CO)O2)c(=O)n1 [2'-Deoxycytidine hydrochloride] | 72.4% | –
Nc1ccn([C@H]2C[C@H](O)[C@@H](CO)O2)c(=O)n1 [2'-Deoxycytidine monohydrate] | 66.8% | –

Fetched one by one from the entries so far, 2 records:
Compound | HMGB1-induced TNF-alpha production [1] | HMGB1-induced TNF-alpha production (compound concentration: 3 uM)
Nc1ccn([C@H]2C[C@H](O)[C@@H](CO)O2)c(=O)n1 [2'-Deoxycytidine hydrochloride] | 72.4% | –
CN1CCN(CC(=O)N2c3ccccc3C(=O)Nc3cccnc32)CC1 [Pirenzepine dihydrochloride] | – | 80.6 ± 32%

(list continues)

Compound | HMGB1-induced TNF-alpha production [1] | HMGB1-induced TNF-alpha production (compound concentration: 3 uM)
N=C(N)NCCCCNC(=N)N [Arcaine sulfate] | – | 96.6%
Cc1ncc(CO)c(C=O)c1O [Pyridoxal hydrochloride] | 68% | –
CO[C@H]1/C=C/O[C@@]2(C)Oc3c(C)c(O)c4c(O)c(c5c(nc6cc(C)ccn65)c4c3C2=O)NC(=O)/C(C)=C\C=C\[C@H](C)[C@H](O)[C@@H](C)[C@@H](O)[C@@H](C)[C@H](OC(C)=O)[C@@H]1C | – | 94.9 ± 15%
CO[C@H]1/C=C/O[C@@]2(C)Oc3c(C)c(O)c4c(O)c(c5c(nc6cc(C)ccn65)c4c3C2=O)NC(=O)/C(C)=C\C=C\[C@H](C)[C@H](O)[C@@H](C)[C@@H](O)[C@@H](C)[C@H](OC(C)=O)[C@@H]1C [Rifaximin] | – | 92.9%
Clc1cccc(Cl)c1NC1=NCCN1 [Clonidine HCl] | – | 95.4%
Clc1cccc(Cl)c1NC1=NCCN1 [Clonidine hydrochloride] | – | 77.01 ± 0.17%
CN(C)S(=O)(=O)c1ccc2c(c1)/C(=C/c1cc3c([nH]1)CCCC3)C(=O)N2 | – | 65.8%
CN1CCN(C2Cc3ccccc3Sc3ccc(Cl)cc32)CC1 (racemic) [(±)-Octoclothepin maleate] | – | 98.5%
O=C1[C@H]2CCCC[C@H]2C(=O)N1CCCCN1CCN(c2nsc3ccccc23)CC1 | – | 106%
Cc1c(N=CC(O)CN2CC3CC(C2)c2cccc(=O)n2C3)c(=O)n(-c2ccccc2)n1C (configuration not stated) | 79.8% | –
Nc1nc2c(ncn2COC(CO)CO)c(=O)[nH]1 [Ganciclovir] | – | 98.6 ± 12%
NCCCCCC(=O)O | – | 81.9%
NCCCCCC(=O)O [Aminocaproic acid] | – | 98.7%
CN(C)C(=N)NC(=N)N [Metformin hydrochloride] | – | 79%
CN(C)C(=N)NC(=N)N [Metformin] | – | 83.2%
CN(C)C(=N)NC(=N)N | – | 98.3%
CC1CC2C3CCC4=CC(=O)C=CC4(C)C3(F)C(O)CC2(C)C1C(=O)CO (configuration not stated) | – | 39%
CC=CC(=O)N(CC)c1ccccc1C [Crotamiton] | – | 86.8 ± 21%
CC=CC(=O)N(CC)c1ccccc1C | – | 97.9 ± 22%

Compound | HMGB1-induced TNF-alpha production [1] | HMGB1-induced TNF-alpha production (compound concentration: 3 uM)
CNCCc1ccccn1 [Betahistine mesylate] | – | 65.3%
CNCCc1ccccn1 | – | 87.4%
CC(=O)[C@@]1(O)CC[C@H]2[C@@H]3CCC4=CC(=O)CC[C@]4(C)[C@H]3CC[C@@]21C | – | 78.5%
C[C@H]1[C@H](C)CC[C@]2(C(=O)O)CC[C@]3(C)C(=CC[C@@H]4[C@@]5(C)CC[C@H](O)C(C)(C)[C@@H]5CC[C@]43C)[C@H]12 [Ursolic acid] | 64.5% | –
O=C(c1ccc(F)cc1)C1CCN(CCn2c(=O)[nH]c3ccccc3c2=O)CC1 [Ketanserin tartrate hydrate] | – | 80.7%
O=C(c1ccc(F)cc1)C1CCN(CCn2c(=O)[nH]c3ccccc3c2=O)CC1 [Ketanserin tartrate] | – | 96.8%
O=C(c1ccc(F)cc1)C1CCN(CCn2c(=O)[nH]c3ccccc3c2=O)CC1 [Ketanserin] | – | 76.6%
O=C(c1ccc(F)cc1)C1CCN(CCn2c(=O)[nH]c3ccccc3c2=O)CC1 | – | 100%
CCN(CC)C(=O)c1ccc(O)c(OC)c1 [Vanillic acid diethylamide] | – | 86.5%
CCN(CC)C(=O)c1ccc(O)c(OC)c1 [Ethamivan] | – | 58.9%
CCN(CC)C(=O)c1ccc(O)c(OC)c1 | – | 90.6%
NC1(C(=O)O)CC1 [1-Aminocyclopropanecarboxylic acid hydrochloride] | – | 116%
O=C1NC(=O)c2cc(Nc3ccccc3)c(Nc3ccccc3)cc21 | – | 93.7%
Cc1[nH]cnc1CN1CCc2c(c3ccccc3n2C)C1=O | – | 101%
O=C(O)CCc1ccc(NCc2cccc(Oc3ccccc3)c2)cc1 | – | 83.1%
CCCOc1ccc2[nH]c(NC(=O)OC)nc2c1 | – | 114%
CCCOc1ccc2[nH]c(NC(=O)OC)nc2c1 [Oxibendazol] | – | 116%
CCCOc1ccc2[nH]c(NC(=O)OC)nc2c1 [Oxibendazole] | – | 97.2%
